Test results: EP2664619B1, “Purine derivatives as tools for screening anti-Alzheimer compounds” (Manros Therapeutics, priority 2012, dated 2013)

Test system: Aβ42 production
Experiment: Sandwich ELISA measurement of Aβ42 levels in supernatant of treated N2a-APP695 cells
Assay type: cell-based, Mouse
Experimental: Mouse neuroblastoma cells (N2a cells) or N2a-APP695 cells (N2a cell line stably transfected with APP695, an amyloid precursor protein) were cultured in an essential medium composed of Dulbecco's minimal essential medium (DMEM) and of OptiMEM® (1:1, v/v) (Gibco®) containing 0.2 mg/mL Geniticin (Geneticin® Selective Antibiotic, Gibco®) and 5 % fetal bovine serum (FBS, Gibco®, EU approved origin) in a humidified, 5% CO2 incubator at 37°C. Routinely, cells were split without use of Trypsin every 4/5 days. They were first rinsed with PBS (Gibco) and detached from the plate bottom using 4 mL Versene (Gibco) at room temperature for 3-4 min. […]
The N2a-APP695 cells were seeded at 10.000 cells/well in a 96 well plate with modified media (0.5% FBS) and incubated overnight. Cells were treated with fresh media comprising different compounds according to the invention (equal quantity of DMSO sold by Sigma®). […]
Then, Aβ38, Aβ40 and Aβ42 levels were measured in a sandwich ELISA (Enzyme-Linked ImmunoSorbent Assay) using a combination of monoclonal antibody 6E10 (mAb 6E10) (sold by Covance® under the reference SIG-39320) and biotinylated polyclonal Aβ38, Aβ40 or Aβ42 antibodies (provided by Dr. P.D. Mehta, IBR, Staten Island, USA). […]
The optical density was finally measured at 490 nm in a microELISA reader (sold by BioTek Instrument, reference E1 800, Gen 5 software). […]

CC[C@H](CO)Nc1nc(N(C)c2ccccc2)c2ncn(C(C)C)c2n1 [Aftin-5, (2R)-2-[[9-isopropyl-6-(N-methylanilino)purin-2-yl]amino]butan-1-ol]
Aβ42 production after plateau (100 µM, even after 48 hours): remained stable | time at which Aβ42 production reached a plateau (after 100 µM addition, time-course, Figure 2): about 12 hours
